What all share (experiment): log2 fold change, soluble protein after heating vs DMSO (PISA); higher = thermal stabilisation; K562 cells, 10 uM, 30 min; active = over 0.2 and 3.5 SD of the protein, either way, in both replicates (recomputed)
Compound in test [1]: CC1=C(C=C(C=C1)NC(=O)C2=CC(=CC=C2)C(C)(C)C#N)NC3=CC4=C(C=C3)N=CN(C4=O)C
Summed up:
(§1)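 For each measurement, 10 μM compound was applied for 30 min to K562 cells at 2×10^6 cells/mL. Aliquots were heated for 3 min across 48°C-58°C, pooled, and extracted in PBS with 0.5% NP-40 at 4°C; the supernatant after 21,000xg for 90 min was soluble protein. This was quantified by TMTpro 16plex LC-MS/MS with channel sums equalised, and thermal stability was reported relative to control samples from duplicates, on a log2 fold-change scale.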

The chains behind the UniProt entries cited, without tags or fusion partners. Where a name states a change or a piece, a line headed by the entry shows the natural chain unless it says otherwise.
UniProt P54852: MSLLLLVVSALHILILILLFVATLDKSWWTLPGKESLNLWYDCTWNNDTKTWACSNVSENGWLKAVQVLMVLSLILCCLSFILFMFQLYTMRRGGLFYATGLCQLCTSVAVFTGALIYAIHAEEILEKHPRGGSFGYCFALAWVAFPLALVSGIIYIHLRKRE
UniProt Q13144, whole entry, looked up: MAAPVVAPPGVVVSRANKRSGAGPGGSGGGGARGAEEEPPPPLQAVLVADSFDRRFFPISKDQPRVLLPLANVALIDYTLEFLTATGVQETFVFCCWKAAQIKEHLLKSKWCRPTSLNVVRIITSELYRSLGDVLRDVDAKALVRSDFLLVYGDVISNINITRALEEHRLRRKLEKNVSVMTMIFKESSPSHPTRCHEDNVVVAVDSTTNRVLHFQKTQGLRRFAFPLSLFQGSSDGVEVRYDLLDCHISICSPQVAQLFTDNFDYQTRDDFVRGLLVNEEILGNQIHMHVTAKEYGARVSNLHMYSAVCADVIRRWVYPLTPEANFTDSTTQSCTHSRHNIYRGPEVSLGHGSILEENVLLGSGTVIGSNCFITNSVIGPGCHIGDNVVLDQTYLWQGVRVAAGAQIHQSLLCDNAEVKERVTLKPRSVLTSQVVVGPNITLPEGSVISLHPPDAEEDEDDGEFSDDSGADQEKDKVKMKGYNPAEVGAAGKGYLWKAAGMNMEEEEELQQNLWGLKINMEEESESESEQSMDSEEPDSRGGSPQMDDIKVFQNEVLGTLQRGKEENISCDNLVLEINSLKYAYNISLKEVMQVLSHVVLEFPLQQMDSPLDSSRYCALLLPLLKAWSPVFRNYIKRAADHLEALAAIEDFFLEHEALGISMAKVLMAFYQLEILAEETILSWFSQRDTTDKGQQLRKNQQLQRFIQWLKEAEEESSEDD
UniProt P50402: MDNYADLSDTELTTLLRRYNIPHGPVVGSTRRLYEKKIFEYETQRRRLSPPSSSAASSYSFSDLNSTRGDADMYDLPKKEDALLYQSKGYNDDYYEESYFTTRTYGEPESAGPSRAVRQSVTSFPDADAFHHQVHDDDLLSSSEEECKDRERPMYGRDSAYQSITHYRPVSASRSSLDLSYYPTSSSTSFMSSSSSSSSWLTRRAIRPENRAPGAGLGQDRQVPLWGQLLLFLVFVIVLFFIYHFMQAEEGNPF
UniProt Q0PNE2: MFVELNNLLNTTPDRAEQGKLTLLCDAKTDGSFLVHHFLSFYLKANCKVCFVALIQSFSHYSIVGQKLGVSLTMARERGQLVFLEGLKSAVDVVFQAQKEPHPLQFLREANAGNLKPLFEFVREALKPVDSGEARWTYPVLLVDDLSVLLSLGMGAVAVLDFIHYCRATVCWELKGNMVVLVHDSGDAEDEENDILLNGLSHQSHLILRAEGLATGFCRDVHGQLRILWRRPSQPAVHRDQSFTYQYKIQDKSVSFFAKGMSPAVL

Compound in test [2]: CC1=C(C=C(C=C1)NC(=O)C2=CC(=CC=C2)N(C)C)NC(=O)C3=CC=C(C=C3)O
In outline: as §1

Compound in test [3]: CC1=CC=C(C=C1)SC2=C3C=C(SC3=CN=C2)C(=O)N
Summed up: as §1

Compound in test [4]: CC1=NC(=CC=C1)C2=C(N=C(N2)C(C)(C)C)C3=CC4=NC=CN=C4C=C3
Summed up: as §1

Compound in the next test: CCCCN(Cc1ccc(C(=O)NO)cc1)C(=O)Nc1ccccc1 [Nexturastat A]
Summed up:
as §1

Compound in the next test: CCCS(=O)(=O)Nc1ccc(F)c(C(=O)c2c[nH]c3ncc(-c4ccc(Cl)cc4)cc23)c1F [vemurafenib]
In outline: as §1

Compound in test [5]: CCCS(=O)(=O)Nc1ccc(F)c(C(=O)c2c[nH]c3ncc(Cl)cc23)c1F
Summed up:
as §1

Compound in test [6]: CCCc1cc(C)[nH]c(=O)c1CNC(=O)c1cc(-c2ccnc(N3CCN(C)CC3)c2)cc2c1cnn2C(C)C
In outline: as §1

Compound in another test: CCN(CC)Cc1ccc2cc(COC(=O)Nc3ccc(C(=O)NO)cc3)ccc2c1 [givinostat]
Summed up: as §1

Compound in the next test: CCN(CCCOc1ccc2c(Nc3cc(CC(=O)Nc4cccc(F)c4)[nH]n3)ncnc2c1)CCOP(=O)(O)O [barasertib]
Summed up: as §1

Compound in test [7]: CC[C@@H]1C(=O)N(C)c2cnc(Nc3ccc(C(=O)NC4CCN(C)CC4)cc3OC)nc2N1C1CCCC1
In outline:
as §1

Compound in a further test: CC[C@@H]1C(=O)N(C)c2cnc(Nc3ccc(C(=O)N[C@H]4CC[C@H](N5CCN(CC6CC6)CC5)CC4)cc3OC)nc2N1C(C)C [volasertib]
In outline:
as §1

Compound in test [8]: CC[C@H](C)N1C=C(C2=C(C=C(C=C21)C3=CN=C(C=C3)N4CCNCC4)C(=O)NCC5=C(C=C(NC5=O)C)C)C
In outline: as §1

Compound in a further test: CC[C@H](C)[C@@H](C(=O)N[C@@H]([C@@H](C)O)C(=O)N[C@@H](CC(C)C)C(=O)[C@]1(CO1)C)NC(=O)[C@H]([C@@H](C)CC)N(C)C(=O)C [epoxomicin]
Summed up:
as §1

Compound in test [9]: CCn1c(C(=O)N(C2CC2)C2CC2)cc2c3c(ncn3C)c(Nc3cc(C)n(C)n3)nc21
Summed up: as §1

Compound in test [10]: CN(C)CC(=O)Nc1ccc2[nH]c(=O)c3ccccc3c2c1
In outline: as §1

Compound in the next test: CN(CCOC1=CC=C(C=C1)C[C@H]2C(=O)NC(=O)S2)C3=CC=CC=N3 (racemic) [rosiglitazone]
Summed up:
as §1

Compound in test [11]: CN1C2=C(C3=C1C(=O)N(N=C3)CC4=CC(=CC=C4)N)SC(=C2)S(=O)C
In outline: as §1

Compound in test [12]: CCn1cc(-c2ccnc3[nH]c(-c4cccc(CN(C)C)c4)cc23)c(-c2ccc(NC(=O)N(C)C)cc2)n1
Summed up:
as §1

Compound in test [13]: CN1CCC(CNc2ccc3ncc(-c4cccc(OC(F)(F)F)c4)n3n2)CC1
In outline: as §1

The list shows a part of the results.

As for EMP3 (UniProt P54852), the log2 fold change is inactive: -0.012 in test [1]; inactive: -0.023 in test [2]; inactive: 0.015 in [3]; inactive: 0 in test [4]; inactive: 0.012 with Nexturastat A; inactive: -0.037 with vemurafenib. The log2 fold change was inactive: -0.033 in test [5]; inactive: -0.635 in test [6]; inactive: 0.001 with givinostat; inactive: -0.061 with barasertib; inactive: 0.25 in test [7]; inactive: 0.098 with volasertib. The log2 fold change in [8] is inactive: -0.122; in the test with epoxomicin, inactive: -0.205; in [9], inactive: 0.045; in [10], inactive: 0.126; with rosiglitazone, inactive: 0.028; in [11], inactive: -0.084.

As to EIF2B5 (UniProt Q13144), the log2 fold change in test [1] is inactive: 0.035; in test [2] it was inactive: -0.006; in test [3], inactive: -0.015; in test [4] it was inactive: 0.009; with Nexturastat A, inactive: 0.064; with vemurafenib, inactive: 0.028. In addition, the log2 fold change in test [5] was inactive: 0.056; in [6], inactive: 0.034; with givinostat it was inactive: -0.031; with barasertib, inactive: 0.008; in test [7], inactive: -0.054; in the test with volasertib it was inactive: -0.149. Also, the log2 fold change in test [8] was inactive: 0.021; with epoxomicin, inactive: 0.001; in test [9], inactive: 0.022; in test [12] it was inactive: 0.036; in test [10] it was inactive: 0.014; with rosiglitazone, inactive: -0.013. For the same target, the log2 fold change is inactive: -0.023 in test [11] and inactive: 0.114 in [13].

As to EMD (UniProt P50402), the log2 fold change in test [1] was inactive: -0.056; in [2], inactive: 0.011; in test [3] it was inactive: -0.076; in [4], inactive: -0.04; with Nexturastat A, inactive: 0.059; with vemurafenib it was inactive: -0.015. Besides, the log2 fold change in test [5] was inactive: 0.021; in test [6], inactive: -0.092; with givinostat it was inactive: 0.002; with barasertib, inactive: 0.002; in [7], inactive: -0.127; in the test with volasertib it was active: -0.273. Besides, the log2 fold change in test [8] was inactive: 0; with epoxomicin, inactive: -0.065; in [12], inactive: 0; in test [10], inactive: -0.018; in test [11], inactive: 0.003; in test [13], inactive: -0.078.

Consider ELP6 (UniProt Q0PNE2), for which the log2 fold change in test [1] was inactive: 0.005; in test [2], inactive: 0.02; in test [3], inactive: 0.02; in test [4] it was inactive: -0.007; with Nexturastat A, inactive: 0.015; with vemurafenib it was inactive: -0.014. Moreover, the log2 fold change in test [5] is inactive: -0.001; in test [6], inactive: -0.07; with givinostat it was inactive: -0.001; in the test with barasertib, inactive: -0.041; in test [7], inactive: 0.042; with volasertib, inactive: 0.009. Further, the log2 fold change was inactive: -0.026 in [8]; inactive: -0.018 in the test with epoxomicin; inactive: 0.013 in test [9]; inactive: -0.002 in [12]; inactive: -0.003 in [10]; inactive: 0.017 with rosiglitazone. Moreover, the log2 fold change is inactive: -0.077 in test [11] and inactive: 0.021 in [13].

Source of the values: the supplement of paper PMC10849652.
